# From PubChem BioAssay AID540276 (National Center for Advancing Translational Sciences (NCATS), 2011)
# The whole screen tested about 300,000 compounds, of which about 5,400 (1.8%) were called active. Inconclusive results, whose numbers are uncertain, are shown with a selection of clear calls. Calls come from the whole dose curve; tested in HEK293 cells. Potencies beside an inconclusive call are fits to weak or partial responses and may not hold up.
# Assay: qHTS for inhibitors of binding or entry into cells for Marburg Virus
# Settings: Marburg virus pseudotyped entry inhibition, cell reporter; activity change, negative = inhibition: at 37.8 µM (top of the series) unless noted
# % is set by controls: 0 for no effect and ±100 for the full control effect; potency is the fitted concentration of half-maximal effect.
Compound,Potency,"activity change, negative = inhibition"
C(#CCN1CCOCC1)COCC#Cc1ccccc1,"inconclusive: 18.3 µM [activator, partial curve, poor fit]",–
CCCCCCSc1nnc2c(n1)OC(C)Nc1ccc(Br)cc1-2 (configuration not stated),"inconclusive: 5.62 µM [activator, partial curve, poor fit]",–
COc1ccc(CNC(=O)c2ccc(Cn3cc(Cl)cn3)o2)cc1,inactive,–
CC(C)n1nc(C(=O)OCC(=O)N(C)C2CCS(=O)(=O)C2)c2ccccc2c1=O (configuration not stated),inactive,–
COc1cc(C(=O)ONC(=O)c2ccc(OC(F)F)cc2)cc(OC)c1OC,"inconclusive: 29.1 µM [inhibitor, single point]",–
CCc1ccc(C(=O)N/N=C(\C)c2cccnc2)s1,"inconclusive: 17.8 µM [inhibitor, single point]",–
COc1ccccc1Oc1ccc(NC(=O)c2ccc(Cl)cc2)cc1,inactive,–
O=C(Nc1nc2ccccc2[nH]1)c1ccc(Cl)c(S(=O)(=O)N2CCCC2)c1,"inconclusive: 35.5 µM [inhibitor, single point]",–
COc1ccccc1N1C(=O)CC(N2CCc3ccccc32)C1=O (configuration not stated),inactive,–
Cc1ccccc1N1CCN(S(=O)(=O)c2cccs2)CC1,"inconclusive: 11.2 µM [inhibitor, partial curve, poor fit]",–
CCOC(=O)c1cc2c3ccccc3n(CC)c2nc1N,inactive,–
C/C(Cn1nc([N+](=O)[O-])cc1C)=N\NC(=O)COc1ccccc1[N+](=O)[O-],inactive,–
CCOc1ccc2nc(N3CCCC(C(=O)Nc4cc(Cl)c(OC)cc4OC)C3)sc2c1 (configuration not stated),"inconclusive: 7.08 µM [activator, partial curve, poor fit]",–
O=C(CSC(=S)N1CCCC1)c1cc(Br)cc(Br)c1O,"inconclusive: 5.62 µM [inhibitor, single point]",–
Cc1c(C(=O)Nc2cccc(-c3nc4ccccc4s3)c2)oc2ccccc12,inactive,–
O=c1[nH][nH]c(=O)n1-c1ccccc1,"inconclusive: 1 µM [inhibitor, full curve, poor fit]",–
O=c1cc(Cl)nc2ccccn12,inactive,–
COc1ccc(S(=O)(=O)N2CCOCC2)cc1NC(=O)CN1C(=O)NC2(CCCCC2C)C1=O (configuration not stated),inactive,–
Cc1c(Br)cc(C(=O)NC2CCCCC2)c(C)c1C,"inconclusive: 0.73 µM [activator, full curve, poor fit]",–
CCCCC(c1nnnn1CC1CCCO1)N1CCN(c2cccc(C)c2C)CC1 (configuration not stated),"inconclusive: 35.5 µM [inhibitor, single point]",–
O=C1c2ccccc2C(=O)c2c(NCCc3ccc(O)cc3)ccc(NCCc3ccc(O)cc3)c21,active: 20.6 µM,–
Cc1csc(NC(=O)CN2C(=O)COc3ccc(Cl)cc32)n1,"inconclusive: 15.8 µM [inhibitor, single point]",–
CCOC(=O)NN1C(=O)c2ccccc2NC1c1cccc(O)c1 (configuration not stated),"inconclusive: 1.78 µM [activator, partial curve, poor fit]",–
COc1cc([N+](=O)[O-])ccc1NC(=O)Cn1ccsc1=N,"inconclusive: 35.5 µM [inhibitor, single point]",–

Compound,Potency,"activity change, negative = inhibition"
NS(=O)(=O)c1ccc(NC(=O)COc2cccc3ccccc23)cc1,"inconclusive: 1.26 µM [activator, single point]",–
CCN(CC)c1ccc(/C=C2/C(=O)c3ccc(C(=O)O)cc3C2=O)cc1,"inconclusive: 2.51 µM [activator, partial curve, poor fit]",–
COC(=O)C1=C(C(=O)OC)[C@@H]2N(C)c3ccccc3[C@@]23C[C@@H](CO)N(C(=O)NC2CCCC2)C3=N1,"inconclusive: 0.0053 µM [inhibitor, full curve, poor fit]",–
Cc1ccc(-c2nnn(CC(=O)N(CC3CCCO3)C(C(=O)NC(C)(C)C)c3ccc(F)cc3)n2)o1 (configuration not stated),"inconclusive: 0.116 µM [inhibitor, full curve, poor fit]",–
CCc1ccc(N2CC(C(=O)Nc3ccc(S(=O)(=O)NCC4CCCO4)cc3)CC2=O)cc1 (configuration not stated),"inconclusive: 39.8 µM [inhibitor, partial curve, poor fit]",–
S=C(NCCc1ccccc1)Nc1cccc2cnccc12,inactive,–
COc1cccc(/C=N/Nc2ccc(S(=O)(=O)O)cc2)c1O,inactive,–
OC(COc1ccc(Cl)cc1)CN1C2=NCCCN2c2ccccc21 (configuration not stated),"inconclusive: 31.6 µM [inhibitor, single point]",–
CN1CCN(NC(=O)Nc2ccc(Br)cc2Cl)CC1,"inconclusive: 35.5 µM [activator, single point]",–
CCOc1ccc(-c2nnc(-c3ccc(OC)cc3)o2)cc1,"inconclusive: 6.31 µM [activator, single point]",–
COc1ccccc1CN1CC(C(=O)N(Cc2cnn(C)c2)C(C)C)CCC1=O (configuration not stated),inactive,–
O=C(COC(=O)c1ccc(S(=O)(=O)N2CCCC2)cc1)NCc1ccc(F)cc1,"inconclusive: 0.355 µM [inhibitor, full curve, poor fit]",–
O=C(O)c1ccc(/C=N/Nc2cccc(C(F)(F)F)c2)cc1,inactive,–
CN(C)c1ccc(C=C2C(=O)NC(=S)NC2=O)cc1,"inconclusive: 5.62 µM [activator, single point]",–
Cn1c(=O)c2c(nc(N3CCOCC3)n2Cc2ccc(Br)cc2)n(C)c1=O,inactive,–
COc1ccc(N=c2cc(-c3ccc(O)cc3)oc3ccccc23)cc1,inactive,–
Cc1cc(C)n(CC(=O)N/N=C/c2ccc3c(c2)OCO3)n1,"inconclusive: 0.316 µM [inhibitor, full curve, poor fit]",–
CN(C)CCCN(C(=O)COc1ccc(Cl)cc1)c1nc2ccc(F)cc2s1,"inconclusive: 11.2 µM [inhibitor, partial curve, poor fit]",–
O=C(/C=C/c1ccccc1[N+](=O)[O-])NCc1ccc(Cl)cc1,inactive,–
CCS(=O)(=O)Nc1cccc(C(=O)CC2(O)C(=O)Nc3ccccc32)c1 (configuration not stated),inactive,–
Cc1ccc2c(c1)Oc1ccccc1C=C2C(=O)O,–,inconclusive: 16.7% [activator] [at 46.1 µM]
Cc1c(Cl)cnc(NC(=O)COC(=O)c2ccncc2)c1Cl,"inconclusive: 4.47 µM [inhibitor, full curve, poor fit]",–
Cc1ccc(NC(=O)c2nc(S(=O)(=O)Cc3ccccc3C)ncc2Cl)cc1C,"inconclusive: 10 µM [inhibitor, partial curve, poor fit]",–
CCOC(=O)C1C(=O)C=C(c2ccc(C)cc2)CC1c1ccco1 (configuration not stated),inactive,–

# Complete entries as entered above:
# CCN(CC)c1ccc(/C=C2/C(=O)c3ccc(C(=O)O)cc3C2=O)cc1 is listed with Potency: inconclusive: 2.51 µM [activator, partial curve, poor fit]
# CN1CCN(NC(=O)Nc2ccc(Br)cc2Cl)CC1 is listed with Potency: inconclusive: 35.5 µM [activator, single point]
# CCS(=O)(=O)Nc1cccc(C(=O)CC2(O)C(=O)Nc3ccccc32)c1 (configuration not stated) is listed with Potency: inactive
# COc1cccc(/C=N/Nc2ccc(S(=O)(=O)O)cc2)c1O is listed with Potency: inactive

# Next part:

Compound,Potency,"activity change, negative = inhibition"
CCOc1ccc2[nH]c(=O)c(CN(CCCO)C(C)=O)cc2c1,"inconclusive: 6.31 µM [activator, single point]",–
CSc1nc2ccc(NC(=O)C3CCCO3)cc2s1 (configuration not stated),"inconclusive: 0.0891 µM [activator, full curve, poor fit]",–
CCOC(=O)CNc1nc(C#N)nc(N2CCOCC2)n1,"inconclusive: 7.94 µM [inhibitor, partial curve, poor fit]",–
CCOC(=O)c1[nH]c2ccc(OC)cc2c1NC(=O)CN1CCc2ccccc2C1,"inconclusive: 15.8 µM [inhibitor, single point]",–
O=C(Cc1ccccc1)Nc1ccc(NC(=O)C2CC2)nc1,inactive,–
CCC(C(=O)N1CCN(c2cc(C)ccc2C)CC1)n1nc(C)n2c(cc3occc32)c1=O (configuration not stated),"inconclusive: 12.6 µM [inhibitor, partial curve]",–
COc1ccc2c(CC(=O)NNC(=O)c3cccs3)coc2c1,inactive,–
O=C(/C=C/c1ccc(OCCCF)cc1)NCc1cccc(Cl)c1,inactive,–
Cc1cc(=O)n2[nH]c(SCc3ccc(Cl)cc3)nc2n1,"inconclusive: 0.447 µM [activator, single point]",–
CCO/C(=C/c1sc2ccc(OC)cc2[n+]1CCCS(=O)(=O)[O-])CC,inactive,–
Cc1ccc(Nc2cc(C)nn2-c2nc(C)cc(C)n2)cc1,"inconclusive: 35.5 µM [inhibitor, single point]",–
CCOc1cc(CNc2ccccc2)cc(Br)c1OCC(=O)NC(C)(C)C,"inconclusive: 20.6 µM [inhibitor, single point]",–
CCc1nn(CC(=O)NC(C)CCc2ccccc2)c(=O)c2cc3c(OC)cccc3n12 (configuration not stated),inactive,–
C=CCOc1c(OC)cc(/C=N/Nc2cccc(C(=O)O)c2)c(Br)c1Br,"inconclusive: 3.16 µM [activator, single point]",–
COc1ccc(-c2cc3nc(C)cc(N)n3n2)cc1,"inconclusive: 5.62 µM [inhibitor, full curve, poor fit]",–
CC(C)n1nc(CC(=O)O)c2ccccc2c1=O,"inconclusive: 8.91 µM [activator, partial curve, poor fit]",–
CN(Cc1ccccc1)C1(CNC(=O)CCC(F)(F)F)Cc2ccccc2C1,inactive,–
Cc1nn(C)cc1CNC(=O)Nc1ccc(Br)cc1Cl,inactive,–
COc1ccc(-c2cccc(NS(=O)(=O)c3ccc([N+](=O)[O-])cc3)c2)nn1,"inconclusive: 0.126 µM [inhibitor, full curve, poor fit]",–
O=C(c1cc(-c2ccco2)nc2ccccc12)N1CCN(c2ccc(F)cc2)CC1,"inconclusive: 0.447 µM [inhibitor, full curve, poor fit]",–
O=C1C=C(N2CCOCC2)C2(CCCCC2)O1,inactive,–
Cc1oc(C(C)(C)C)cc1C(=O)N1CCN(c2ncccc2C(F)(F)F)CC1,inactive,–
CCCNC(=O)Cn1cnc2sc(C(=O)N3CCN(CCC)CC3)c(C)c2c1=O,inactive,–
O=C(Oc1ccc([N+](=O)[O-])cc1)c1cc(-c2ccccc2)nc2ccccc12,inactive,–
